At least one compound was matched to its structure with a doubt left.
Target: T1, hSSTR5 (Homo sapiens, UniProt P35346)
T1 construct: expressed in transfected cells; host or cells: CHO cells co-expressing Gα16 (hSSTR5-CHO-Gα16)
Test: SSTR5 antagonistic activity in vitro by calcium flow detection (hSSTR5-CHO-Gα16 cells)
Type: cell-based
Settings: summary of Table 1
Description: Testing SSTR5 antagonistic activity in vitro by Calcium flow detection method Experimental principle: After the receptor binds to the ligand and is activated, it can cause the activation of Gα16 protein, which further activates phospholipase C(PLC) to produce IP3 and DAG. IP3 can bind to the IP3 receptors on the endoplasmic reticulum and mitochondria in the cell, thereby causing the release of intracellular calcium. Therefore, measuring the changes in intracellular calcium can be used in the method to detect the activation state of hSSTR5. Fluo-4/AM is a calcium fluorescent probe indicator used to measure calcium ions. As a non-polar lipid-soluble compound, after it enters the cell, the AM group therein dissociates, and Fluo-4 is released under the action of cellular lipase; because Fluo-4 is a polar molecule and is not easy to pass through the lipid bilayer membrane, it can keep Fluo-4 in the cell fora longtime. Finally, the level of Ga protein activation can be reflected by measuring the intensity of the excited fluorescence. Somatostatin, an agonist of SSTR5, can activate SSTR5 receptors and greatly increase the calcium flow response. The SSTR5 antagonist to be tested can inhibit the agonist activity of the SSTR5 receptor and reduce the calcium increased flow response of the receptor stimulated by the agonist. […]

Chains of the proteins cited; added tags and fusions are not shown. Lines headed by an entry give the natural chain unless they say otherwise; changes in a name come on top.
UniProt P35346: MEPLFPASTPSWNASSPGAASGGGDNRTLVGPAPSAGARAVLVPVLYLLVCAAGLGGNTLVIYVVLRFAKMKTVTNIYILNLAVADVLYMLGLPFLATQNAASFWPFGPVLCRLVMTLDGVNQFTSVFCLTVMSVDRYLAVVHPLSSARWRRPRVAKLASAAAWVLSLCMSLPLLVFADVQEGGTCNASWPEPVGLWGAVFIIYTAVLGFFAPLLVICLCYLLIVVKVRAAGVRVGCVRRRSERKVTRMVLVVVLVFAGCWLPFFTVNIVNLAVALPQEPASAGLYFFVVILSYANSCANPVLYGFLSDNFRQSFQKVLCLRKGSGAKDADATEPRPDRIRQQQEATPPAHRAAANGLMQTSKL

Structure (SMILES): CCOc1cc(CN2CCC(C3CN(S(=O)(=O)c4ccc(OC(F)(F)F)cc4)C3)CC2)cc(OCC)c1-c1ccc(F)cc1 [Example 14]
- SSTR5 antagonistic activity (in words): potent SSTR5 antagonistic activity

Source: US20250066359A1, “SOMATOSTATIN RECEPTOR SUBTYPE 5 ANTAGONISTS, AND PHARMACEUTICAL COMPOSITION AND USE THEREOF” (SHANGHAI INSTITUTE OF MATERIA MEDICA, CHINESE ACADEMY OF …, priority 2021, published 2025)
